For one substance, binding results are on record in article PMC4617965.

Protein sequences, listed by entry. Tags and fused reporters are not part of them.
UniProt Q24562: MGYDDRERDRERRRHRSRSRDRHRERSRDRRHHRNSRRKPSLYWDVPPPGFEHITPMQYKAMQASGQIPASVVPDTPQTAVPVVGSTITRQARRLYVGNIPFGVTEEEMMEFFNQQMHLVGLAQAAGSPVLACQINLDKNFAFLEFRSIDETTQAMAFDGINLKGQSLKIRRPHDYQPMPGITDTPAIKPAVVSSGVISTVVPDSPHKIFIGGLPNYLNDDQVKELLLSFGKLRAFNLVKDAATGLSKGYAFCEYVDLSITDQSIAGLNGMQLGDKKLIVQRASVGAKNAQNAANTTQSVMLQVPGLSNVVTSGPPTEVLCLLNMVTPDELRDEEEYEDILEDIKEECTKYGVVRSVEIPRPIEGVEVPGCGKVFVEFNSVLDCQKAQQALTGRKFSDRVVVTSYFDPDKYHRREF

The assay has as its target T1, UPF1 (Drosophila melanogaster) (UniProt Q9VYS3).
T1 sequence: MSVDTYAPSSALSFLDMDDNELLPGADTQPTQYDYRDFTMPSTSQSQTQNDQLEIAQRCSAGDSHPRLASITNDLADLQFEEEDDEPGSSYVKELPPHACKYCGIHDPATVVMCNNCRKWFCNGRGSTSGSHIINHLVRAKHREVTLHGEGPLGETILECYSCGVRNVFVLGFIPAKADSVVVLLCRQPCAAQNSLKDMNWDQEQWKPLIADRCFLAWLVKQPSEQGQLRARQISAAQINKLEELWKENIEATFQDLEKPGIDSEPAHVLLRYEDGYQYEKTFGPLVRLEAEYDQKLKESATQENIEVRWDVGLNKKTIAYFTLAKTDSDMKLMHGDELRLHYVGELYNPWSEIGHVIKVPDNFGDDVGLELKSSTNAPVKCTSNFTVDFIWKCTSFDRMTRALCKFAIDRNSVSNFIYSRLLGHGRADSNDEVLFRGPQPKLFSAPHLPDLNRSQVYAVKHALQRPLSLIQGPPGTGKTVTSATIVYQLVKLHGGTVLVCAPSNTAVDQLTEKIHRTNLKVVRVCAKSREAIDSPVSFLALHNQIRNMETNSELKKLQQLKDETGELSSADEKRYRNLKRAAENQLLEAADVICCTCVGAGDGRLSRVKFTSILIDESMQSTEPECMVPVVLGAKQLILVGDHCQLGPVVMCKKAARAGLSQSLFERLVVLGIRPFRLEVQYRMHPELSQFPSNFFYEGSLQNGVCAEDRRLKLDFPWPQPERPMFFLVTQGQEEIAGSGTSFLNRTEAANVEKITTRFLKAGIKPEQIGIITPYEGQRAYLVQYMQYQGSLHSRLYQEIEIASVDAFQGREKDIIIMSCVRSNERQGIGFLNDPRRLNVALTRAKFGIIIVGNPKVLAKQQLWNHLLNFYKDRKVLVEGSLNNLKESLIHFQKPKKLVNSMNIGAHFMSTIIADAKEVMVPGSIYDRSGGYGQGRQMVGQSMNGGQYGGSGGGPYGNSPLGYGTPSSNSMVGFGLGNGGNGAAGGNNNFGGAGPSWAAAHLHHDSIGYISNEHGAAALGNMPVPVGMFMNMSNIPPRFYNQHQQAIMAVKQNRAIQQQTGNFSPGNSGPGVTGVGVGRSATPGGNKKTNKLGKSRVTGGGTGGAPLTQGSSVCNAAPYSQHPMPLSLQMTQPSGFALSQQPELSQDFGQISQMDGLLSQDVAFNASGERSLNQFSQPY
Description: co-IP; reciprocal co-IP with an alternative tag (Supplemental Fig. 3; Supplemental Methods).

These are yes or no findings as the source states them, for the method shown. Binding seen in cells or lysates may run through a third protein. Some binding calls cover weakened binding; strength is not graded here.

With U2AF50 (from UniProt Q24562 1-416), the binding entry was “binds”.
